Primary screen of a compound library

Sequences of proteins named here, by UniProt entry; tags and fusion partners are left off.
UniProt P9WNZ1, whole entry: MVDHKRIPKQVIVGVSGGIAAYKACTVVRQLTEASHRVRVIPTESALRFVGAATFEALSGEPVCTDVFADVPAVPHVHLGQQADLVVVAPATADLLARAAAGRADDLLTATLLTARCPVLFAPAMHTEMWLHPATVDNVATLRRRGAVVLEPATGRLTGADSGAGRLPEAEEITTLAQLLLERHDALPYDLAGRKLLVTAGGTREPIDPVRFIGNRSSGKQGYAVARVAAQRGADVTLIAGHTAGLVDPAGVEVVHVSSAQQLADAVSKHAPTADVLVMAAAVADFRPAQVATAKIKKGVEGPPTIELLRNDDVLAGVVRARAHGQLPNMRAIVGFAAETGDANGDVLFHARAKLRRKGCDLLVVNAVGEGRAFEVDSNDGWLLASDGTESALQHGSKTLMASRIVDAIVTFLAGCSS

Data taken from ChEMBL document CHEMBL3988442, “University of Dundee, Small-Polar-MMV Screening Library” (2021).

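Enzyme assay of CoaBC with a phosphate dye (Biomol Green) read at 650 nm. Target: Coenzyme A biosynthesis protein CoaBC, Mycobacterium tuberculosis (UniProt P9WNZ1). Tested at 30 µM. Direction is inferred from only a few compounds that gave an IC50; most scored high, so higher reads as stronger inhibition. Most strong results did not repeat in a second test. Of about 67,000 compounds tested this way, about 40 (0.06%) reached 50% or more in at least one test.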

Each number is a percent effect as filed.
How 0% and 100% were set is not recorded. Most values in the screen are low, and negative values occur.
Compounds were drawn at random from those tested, without regard to their results.

{"smiles": "CN1CCC(c2[nH]ncc2S(C)(=O)=O)CC1", "percent effect": 1.9}
{"smiles": "COCC1CC2(CCN(C(=O)c3ccc(F)c(Cl)c3)CC2)CO1", "stereo": "stereo not given", "percent effect": -8.061}
{"smiles": "CCN(CC)C(=O)Cn1c(-c2ccc(Cl)cc2)nc(C)c(CCO)c1=O", "percent effect": -0.9685}
{"smiles": "Cn1cc(C(=O)O)c(-c2ccc(F)cc2F)n1", "percent effect": 2.066}
{"smiles": "CCO[C@H]1CC[C@H]2[C@H]1OCCN2C(=O)c1nn(C)c2ccccc12", "percent effect": 1.707}
{"smiles": "Cc1ncnc2c1CCN(CC1CCOC1)CC2", "stereo": "stereo not given", "percent effect": 3.585}
{"smiles": "COc1ccccc1CN(Cc1cccnc1)CC1CCCO1", "stereo": "stereo not given", "percent effect": 1.456}
{"smiles": "COc1ccc(C)cc1CC(=O)NS(=O)(=O)c1ccc(C(N)=O)cc1", "percent effect": -1.195}
{"smiles": "Cc1ccsc1CN(C)C(=O)Cn1nc(-c2ccc(F)cc2)oc1=O", "percent effect": -0.4049}
{"smiles": "CN(Cc1nncn1C)c1nccc(C2CCCC2)n1", "percent effect": -2.258}
{"smiles": "CN(Cc1cc(C(C)(C)C)n[nH]1)C(=O)c1cn2ccsc2n1", "percent effect": 2.479}
{"smiles": "COc1ccc(-c2cc(C3CCNCC3)nc(C)n2)cc1", "percent effect": 5.767}
{"smiles": "CCC1=N[C@@]2(CC[C@@H]3CN(Cc4ccc(F)cc4)C[C@@H]32)C(=O)N1C", "percent effect": 4.198}
{"smiles": "CO[C@@H]1CC[C@H]2[C@H]1OCCN2CCOCc1ccccc1", "percent effect": 4.187}
{"smiles": "COc1cccc(OC)c1CN1CC(=O)N(c2ccc(C)cc2)CC1C", "stereo": "stereo not given", "percent effect": 4.167}
{"smiles": "CCN(CCC(F)(F)F)C(=O)Nc1cccc(N2CCOCC2)c1", "percent effect": -6.183}
{"smiles": "CC1=N[C@@]2(CC[C@@H]3CN(CC(C)C)C[C@@H]32)C(=O)N1CC(C)C", "percent effect": 2.538}
{"smiles": "O=C(O)Cn1ccc2c(Cl)cccc21", "percent effect": -2.804}
{"smiles": "COc1ccccc1CNC(=O)N1CCCC(CO)C1", "stereo": "stereo not given", "percent effect": -2.233}
{"smiles": "COc1ccc2c(c1)OCC(Cc1ccc(N)nc1C)C2", "stereo": "stereo not given", "percent effect": 2.357}
{"smiles": "Cc1cccc2[nH]c(C3CCCN3Cc3ccc(CO)o3)nc12", "stereo": "stereo not given", "percent effect": 6.291}
{"smiles": "Cc1ccc(F)c(S(=O)(=O)NCCc2nnc[nH]2)c1", "percent effect": 4.132}
{"smiles": "Cc1cc(C)n(Cc2ccc(C(=O)NCCN3CCOCC3)cc2)n1", "percent effect": -7.595}
{"smiles": "CCn1ncc2c1C(COCC1CC1)N(Cc1nccs1)CC2", "stereo": "stereo not given", "percent effect": -1.25}
{"smiles": "CC(CO)NC(=O)c1ccc(NCc2ccccc2)cc1", "stereo": "stereo not given", "percent effect": -0.1267}
{"smiles": "CCC[C@H]1CN(CCS(C)(=O)=O)C[C@@H]1NC(=O)c1ccn(C)n1", "percent effect": -5.495}
{"smiles": "CC(C)Cn1cncc1CNC1CCSC1", "stereo": "stereo not given", "percent effect": 7.195}
{"smiles": "O=C1N(Cc2ccc(F)c(F)c2)CCCC1(O)CNCc1ccccn1", "stereo": "stereo not given", "percent effect": 4.315}
{"smiles": "c1cnn(CC2CCCN2c2ncnc3ccsc23)c1", "stereo": "stereo not given", "percent effect": 4.384}
{"smiles": "Cc1cnccc1N1CCCN(C(=O)CCCc2cn[nH]c2)CC1", "percent effect": -0.2132}
{"smiles": "O=C(c1ccco1)N1C(CO)[C@]2(O)CC[C@H]1CC2", "stereo": "stereo not given in full", "percent effect": 1.695}
{"smiles": "CCn1ccnc1CN(C)Cc1nc(CCC(C)C)no1", "percent effect": -5.484}
{"smiles": "O=C(c1ccoc1)N1CCC2(CC1)C(=O)N(CC1CC1)c1ccccc12", "percent effect": 2.703}
{"smiles": "Cc1cc(C)n(C2CN(CCc3ccccn3)C2)n1", "percent effect": 2.417}
{"smiles": "CN(C)S(=O)(=O)N1C[C@@H](Oc2ccccn2)[C@H]2OCCC[C@H]21", "percent effect": 3.169}
{"smiles": "CC(O)c1cn(CC2CCN(C(=O)CN3CCCC3=O)CC2)nn1", "stereo": "stereo not given", "percent effect": -0.1242}

For reference, 2 entries once more:

* CC(CO)NC(=O)c1ccc(NCc2ccccc2)cc1 (stereo not given) : -0.1267%
* COc1ccc(-c2cc(C3CCNCC3)nc(C)n2)cc1 : 5.767%